First the molecules themselves.
B1: RBM14 (protein, UniProt Q96PK6 1-669, looked up)
RNA-binding protein 14: MKIFVGNVDGADTTPEELAALFAPYGTVMSCAVMKQFAFVHMRENAGALRAIEALHGHELRPGRALVVEMSRPRPLNTWKIFVGNVSAACTSQELRSLFERRGRVIECDVVKDYAFVHMEKEADAKAAIAQLNGKEVKGKRINVELSTKGQKKGPGLAVQSGDKTKKPGAGDTAFPGTGGFSATFDYQQAFGNSTGGFDGQARQPTPPFFGRDRSPLRRSPPRASYVAPLTAQPATYRAQPSVSLGAAYRAQPSASLGVGYRTQPMTAQAASYRAQPSVSLGAPYRGQLASPSSQSAAASSLGPYGGAQPSASALSSYGGQAAAASSLNSYGAQGSSLASYGNQPSSYGAQAASSYGVRAAASSYNTQGAASSLGSYGAQAASYGAQSAASSLAYGAQAASYNAQPSASYNAQSAPYAAQQAASYSSQPAAYVAQPATAAAYASQPAAYAAQATTPMAGSYGAQPVVQTQLNSYGAQASMGLSGSYGAQSAAAATGSYGAAAAYGAQPSATLAAPYRTQSSASLAASYAAQQHPQAAASYRGQPGNAYDGAGQPSAAYLSMSQGAVANANSTPPPYERTRLSPPRASYDDPYKKAVAMSKRYGSDRRLAELSDYRRLSESQLSFRRSPTKSSLDYRRLPDAHSDYARYSGSYNDYLRAAQMHSGYQRRM
B2: GLYR1 (protein, UniProt Q49A26 1-553, looked up)
Cytokine-like nuclear factor …: MAAVSLRLGDLVWGKLGRYPPWPGKIVNPPKDLKKPRGKKCFFVKFFGTEDHAWIKVEQLKPYHAHKEEMIKINKGKRFQQAVDAVEEFLRRAKGKDQTSSHNSSDDKNRRNSSEERSRPNSGDEKRKLSLSEGKVKKNMGEGKKRVSSGSSERGSKSPLKRAQEQSPRKRGRPPKDEKDLTIPESSTVKGMMAGPMAAFKWQPTASEPVKDADPHFHHFLLSQTEKPAVCYQAITKKLKICEEETGSTSIQAADSTAVNGSITPTDKKIGFLGLGLMGSGIVSNLLKMGHTVTVWNRTAEKCDLFIQEGARLGRTPAEVVSTCDITFACVSDPKAAKDLVLGPSGVLQGIRPGKCYVDMSTVDADTVTELAQVIVSRGGRFLEAPVSGNQQLSNDGMLVILAAGDRGLYEDCSSCFQAMGKTSFFLGEVGNAAKMMLIVNMVQGSFMATIAEGLTLAQVTGQSQQTLLDILNQGQLASIFLDQKCQNILQGNFKPDFYLKYIQKDLRLAIALGDAVNHPTPMAAAANEVYKRAKALDQSDNDMSAVYRAYIH
B3: ATP2A2 (protein, UniProt P16615 1-1042, looked up)
Sarcoplasmic/endoplasmic …: MENAHTKTVEEVLGHFGVNESTGLSLEQVKKLKERWGSNELPAEEGKTLLELVIEQFEDLLVRILLLAACISFVLAWFEEGEETITAFVEPFVILLILVANAIVGVWQERNAENAIEALKEYEPEMGKVYRQDRKSVQRIKAKDIVPGDIVEIAVGDKVPADIRLTSIKSTTLRVDQSILTGESVSVIKHTDPVPDPRAVNQDKKNMLFSGTNIAAGKAMGVVVATGVNTEIGKIRDEMVATEQERTPLQQKLDEFGEQLSKVISLICIAVWIINIGHFNDPVHGGSWIRGAIYYFKIAVALAVAAIPEGLPAVITTCLALGTRRMAKKNAIVRSLPSVETLGCTSVICSDKTGTLTTNQMSVCRMFILDRVEGDTCSLNEFTITGSTYAPIGEVHKDDKPVNCHQYDGLVELATICALCNDSALDYNEAKGVYEKVGEATETALTCLVEKMNVFDTELKGLSKIERANACNSVIKQLMKKEFTLEFSRDRKSMSVYCTPNKPSRTSMSKMFVKGAPEGVIDRCTHIRVGSTKVPMTSGVKQKIMSVIREWGSGSDTLRCLALATHDNPLRREEMHLEDSANFIKYETNLTFVGCVGMLDPPRIEVASSVKLCRQAGIRVIMITGDNKGTAVAICRRIGIFGQDEDVTSKAFTGREFDELNPSAQRDACLNARCFARVEPSHKSKIVEFLQSFDEITAMTGDGVNDAPALKKAEIGIAMGSGTAVAKTASEMVLADDNFSTIVAAVEEGRAIYNNMKQFIRYLISSNVGEVVCIFLTAALGFPEALIPVQLLWVNLVTDGLPATALGFNPPDLDIMNKPPRNPKEPLISGWLFFRYLAIGCYVGAATVGAAAWWFIAADGGPRVSFYQLSHFLQCKEDNPDFEGVDCAIFESPYPMTMALSVLVTIEMCNALNSLSENQSLLRMPPWENIWLVGSICLSMSLHFLILYVEPLPLIFQITPLNVTQWLMVLKISLPVILMDETLKFVARNYLEPGKECVQPATKSCSFSACTDGISWPFVLLIMPLVIWVYSTDTNFSDMFWS
B4: UQCRC2 (protein, UniProt P22695 15-453, looked up)
Cytochrome b-c1 complex …: SLKVAPKVKATAAPAGAPPQPQDLEFTKLPNGLVIASLENYSPVSRIGLFIKAGSRYEDFSNLGTTHLLRLTSSLTTKGASSFKITRGIEAVGGKLSVTATRENMAYTVECLRGDVDILMEFLLNVTTAPEFRRWEVADLQPQLKIDKAVAFQNPQTHVIENLHAAAYRNALANPLYCPDYRIGKVTSEELHYFVQNHFTSARMALIGLGVSHPVLKQVAEQFLNMRGGLGLSGAKANYRGGEIREQNGDSLVHAAFVAESAVAGSAEANAFSVLQHVLGAGPHVKRGSNTTSHLHQAVAKATQQPFDVSAFNASYSDSGLFGIYTISQATAAGDVIKAAYNQVKTIAQGNLSNTDVQAAKNKLKAGYLMSVESSECFLEEVGSQALVAGSYMPPSTVLQQIDSVANADIINAAKKFVSGQKSMAASGNLGHTPFVDEL
B5: NOP56 (protein, UniProt O00567 1-594, looked up)
Nucleolar protein 56: MVLLHVLFEHAVGYALLALKEVEEISLLQPQVEESVLNLGKFHSIVRLVAFCPFASSQVALENANAVSEGVVHEDLRLLLETHLPSKKKKVLLGVGDPKIGAAIQEELGYNCQTGGVIAEILRGVRLHFHNLVKGLTDLSACKAQLGLGHSYSRAKVKFNVNRVDNMIIQSISLLDQLDKDINTFSMRVREWYGYHFPELVKIINDNATYCRLAQFIGNRRELNEDKLEKLEELTMDGAKAKAILDASRSSMGMDISAIDLINIESFSSRVVSLSEYRQSLHTYLRSKMSQVAPSLSALIGEAVGARLIAHAGSLTNLAKYPASTVQILGAEKALFRALKTRGNTPKYGLIFHSTFIGRAAAKNKGRISRYLANKCSIASRIDCFSEVPTSVFGEKLREQVEERLSFYETGEIPRKNLDVMKEAMVQAEEAAAEITRKLEKQEKKRLKKEKKRLAALALASSENSSSTPEECEEMSEKPKKKKKQKPQEVPQENGMEDPSISFSKPKKKKSFSKEELMSSDLEETAGSTSIPKRKKSTPKEETVNDPEEAGHRSGSKKKRKFSKEEPVSSGPEEAVGKSSSKKKKKFHKASQED
B6: TUBB4A (protein, UniProt P04350 1-444, looked up)
Tubulin beta-4A chain: MREIVHLQAGQCGNQIGAKFWEVISDEHGIDPTGTYHGDSDLQLERINVYYNEATGGNYVPRAVLVDLEPGTMDSVRSGPFGQIFRPDNFVFGQSGAGNNWAKGHYTEGAELVDAVLDVVRKEAESCDCLQGFQLTHSLGGGTGSGMGTLLISKIREEFPDRIMNTFSVVPSPKVSDTVVEPYNATLSVHQLVENTDETYCIDNEALYDICFRTLKLTTPTYGDLNHLVSATMSGVTTCLRFPGQLNADLRKLAVNMVPFPRLHFFMPGFAPLTSRGSQQYRALTVPELTQQMFDAKNMMAACDPRHGRYLTVAAVFRGRMSMKEVDEQMLSVQSKNSSYFVEWIPNNVKTAVCDIPPRGLKMAATFIGNSTAIQELFKRISEQFTAMFRRKAFLHWYTGEGMDEMEFTEAESNMNDLVSEYQQYQDATAEEGEFEEEAEEEVA
B7: TUBB1 (protein, UniProt Q9H4B7 1-451, looked up)
Tubulin beta-1 chain: MREIVHIQIGQCGNQIGAKFWEMIGEEHGIDLAGSDRGASALQLERISVYYNEAYGRKYVPRAVLVDLEPGTMDSIRSSKLGALFQPDSFVHGNSGAGNNWAKGHYTEGAELIENVLEVVRHESESCDCLQGFQIVHSLGGGTGSGMGTLLMNKIREEYPDRIMNSFSVMPSPKVSDTVVEPYNAVLSIHQLIENADACFCIDNEALYDICFRTLKLTTPTYGDLNHLVSLTMSGITTSLRFPGQLNADLRKLAVNMVPFPRLHFFMPGFAPLTAQGSQQYRALSVAELTQQMFDARNTMAACDLRRGRYLTVACIFRGKMSTKEVDQQLLSVQTRNSSCFVEWIPNNVKVAVCDIPPRGLSMAATFIGNNTAIQEIFNRVSEHFSAMFKRKAFVHWYTSEGMDINEFGEAENNIHDLVSEYQQFQDAKAVLEEDEEVTEEAEMEPEDKGH
B8: PIP (protein, UniProt P12273 29-146, looked up)
Prolactin-inducible protein: QDNTRKIIIKNFDIPKSVRPNDEVTAVLAVQTELKECMVVKTYLISSIPLQGAFNYKYTACLCDDNPKTFYWDFYTNRTVQIAAVVDVIRELGICPDDAAVIPIKNNRFYTIEILKVE
B9: PRSS3 (protein, UniProt P35030 81-304, looked up)
Trypsin-3: IVGGYTCEENSLPYQVSLNSGSHFCGGSLISEQWVVSAAHCYKTRIQVRLGEHNIKVLEGNEQFINAAKIIRHPKYNRDTLDNDIMLIKLSSPAVINARVSTISLPTTPPAAGTECLISGWGNTLSFGADYPDELKCLDAPVLTQAECKASYPGKITNSMFCVGFLEGGKDSCQRDSGGPVVCNGQLQGVVSWGHGCAWKNRPGVYTKVYNYVDWIKDTIAANS
B10: LACRT (protein, UniProt Q9GZZ8 20-138, looked up)
Extracellular glycoprotein …: EDASSDSTGADPAQEAGTSKPNEEISGPAEPASPPETTTTAQETSAAAVQGTAKVTSSRQELNPLKSIVEKSILLTEQALAKAGKGMHGGVPGGKQFIENGSEFAQKLLKKFSLLKPWA

The first data set has as its system mSWI/SNF complexes. Kind of data set: mSWI/SNF complex purification with HA-tagged baits and mass spectrometry (peptide counts). Further details: species or system human. The conditions noted are these: 293_HA-BRD7: HA-BRD7 bait purification, total peptide count per co-purified protein.
B1 had a Total of 5.
Turning to B2, the Total was 10.
As to B3, the Total is given as 15.
Take B4: the Total is given as 12.
On to B5, for which the Total was 6.
On to B6, for which the Total came out at 4.

Staying with this data set, now noted: 293_HA-BRD7: HA-BRD7 bait purification, unique peptide count per co-purified protein.
In the case of B1, the Unique is on record as 5.
For the molecule B2, the Unique was 10.
Still for that read-out and setting: under B3 stands 13.
B4 came in with a Unique of 11.
Still for that read-out and setting: under B5 stands 6.
For the molecule B6, the Unique came out at 4.

Still in this data set, the particulars now being: 293_HA-BRD7 bait purification, mass spectrometry; total peptides per co-purified protein.
Molecule B7 registered a Total of 4.

The same data set, now with this note: 293_HA-BRD7 bait purification, mass spectrometry; unique peptides per co-purified protein.
Regarding B7, the Unique turned out to be 3.

Still in this data set, the particulars now being: 293_HA-DPF2 purification, total peptides.
For the molecule B8, the Total came out at 1.

The same data set, now with this note: 293_HA-DPF2 purification, unique peptides.
Take B8: the Unique amounted to 1.

The same data set, now with this note: total peptide count of the co-purified protein; 293_HA-BRD9 (HA-BRD9 bait, mass spectrometry), Table 3b.
Molecule B1 registered a Total of 2.
As to B7, the Total was 1.
For B2, the Total was 1.
The molecule B3 showed a Total of 2.
Molecule B4 gave a Total of 2.
Turning to B9, the Total is given as 1.
In turn, B5 displayed a Total of 1.
On the same count and under the same terms, under B10 stands 1.
Still for that read-out and setting: for B8 the value was 1; for B6, 1.

Staying with this data set, now noted: unique peptide count of the co-purified protein; 293_HA-BRD9 (HA-BRD9 bait, mass spectrometry), Table 3b.
For B1, the Unique was found to be 2.
As for B7, the Unique is listed as 1.
In the case of B2, the Unique was found to be 1.
For B3, the Unique worked out at 2.
On the same count and under the same terms, for B4 the value was 1.
For B9, the Unique turned out to be 1.
In turn, B5 had a Unique of 1.
Take B10: the Unique came out at 1.
Molecule B8 yielded a Unique of 1.
Same read-out and setting: for B6 the value was 1.

The values are drawn from patent US12729225B2, “Non-canonical SWI/SNF complex and uses thereof” (Dana-Farber Cancer Institute, Inc., priority 2018, dated 2026).
